Experimental data from patent US12582638B2, “Pharmaceutical composition for treating cancer, containing mTOR-signaling inhibitor as active ingredient” (KOREA ADVANCED INSTITUTE OF SCIENCE AND TECHNOLOGY, priority 2020, dated 2026).

Test system: HCT116
Test: RNA-seq assay, gene set enrichment, pathway enrichment and DEG analysis
Format: cell-based, human
Protocol: For the final detection of significant gene-sets, gene annotation databases (KEGG pathway, Gene Ontology, etc.) with various biological information about genes were used to discover various gene-sets by grouping genes with specific functions among all the genes used in the RNA-seq experiment. Significant genes were determined with reference to a difference in expression values between the two classes within each gene-set, and statistically significant gene-set was finally detected based on the significant genes. […] In DEG analysis, expression values of genes are measured and statistically processed to select a significant gene candidate group (differentially expression genes) with a difference in expression between a control and a comparison group.

## O=C(NC1CCN(CCCCC2(C(=O)NCC(F)(F)F)c3ccccc3-c3ccccc32)CC1)c1ccccc1-c1ccc(C(F)(F)F)cc1 [lomitapide, N-(2,2,2-trifluoroethyl)-9-[4-[4-[[[4′-(trifluoromethyl)[1,1′-biphenyl]2-yl]carbonyl]amino]-1-piperidinyl]butyl]-9H-fluoren-9-carboxamide]
AGE-RAGE signaling pathway in diabetic complications
  Gene Ratio: 0.53
Adrenergic signaling in cardiomyocytes
  Gene Ratio: 0.62
Apoptosis
  Gene Ratio: 0.35
Autophagy - animal
  Gene Ratio: 0.6
Breast cancer
  Gene Ratio: 0.37
C-type lectin receptor signaling pathway
  Gene Ratio: 0.16
Colorectal cancer
  Gene Ratio: 0.58
Cytokine-cytokine receptor interaction
  Gene Ratio: 0.37
Endocrine resistance
  Gene Ratio: 0.41
Epithelial cell signaling in Helicobacter pylori infection
  Gene Ratio: 0.38
ErbB signaling pathway
  Gene Ratio: 0.69
Fluid shear stress and atherosclerosis
  Gene Ratio: 0.31
FoxO signaling pathway
  Gene Ratio: 0.52
Hepatitis B
  Gene Ratio: 0.33
Human T-cell leukemia virus 1 infection
  Gene Ratio: 0.35
IL-17 signaling pathway
  Gene Ratio: 0.45
Kaposi sarcoma-associated herpesvirus infection
  Gene Ratio: 0.4
MAPK signaling pathway
  Gene Ratio: 0.31
NF-kappa B signaling pathway
  Gene Ratio: 0.46
Neuroactive ligand-receptor interaction
  Gene Ratio: 0.52
Non-alcoholic fatty liver disease (NAFLD)
  Gene Ratio: 0.33
Osteoclast differentiation
  Gene Ratio: 0.81
PI3K-Akt signaling pathway
  Gene Ratio: 0.24
Parathyroid hormone synthesis, secretion and action
  Gene Ratio: 0.53
Pathways in cancer
  Gene Ratio: 0.3
Peroxisome
  Gene Ratio: 0.83
Pertussis
  Gene Ratio: 0.33
Protein processing in endoplasmic reticulum
  Gene Ratio: 0.26
Relaxin signaling pathway
  Gene Ratio: 0.6
Shigellosis
  Gene Ratio: 0.38
Signaling pathways regulating pluripotency of stem cells
  Gene Ratio: 0.39
Spliceosome
  Gene Ratio: 0.88
TNF signaling pathway
  Gene Ratio: 0.62
Transcriptional misregulation in cancer
  Gene Ratio: 0.4
Viral carcinogenesis
  Gene Ratio: 0.42
